Source: PubChem BioAssay AID1508587 (Peter MacCallum Cancer Centre, 2020)
Test: 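Follow-up of vemurafenib sensitisers scored by lactate made per cell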 (follow-up of hits). Cell system: human WM266.4 melanoma cells with a BRAF V600 mutation. Reagents: single siRNA against human genes, 25 nM. Time to read-out: 96 h. Treatment: vemurafenib 300 nM (about IC25), given 48 h after transfection for 48 h. Measurement: 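Per-cell lactate from absorbance divided by DAPI nucleus counts, compared with and without vemurafenib, relative to non-targeting siRNA, mean of 2 replicates; nuclear counts also give cell number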. Direction: lactate per cell, drug vs no drug: higher = less drug-induced drop in lactate per cell; lactate per cell with vemurafenib: higher = more lactate per cell under drug; lactate per cell without drug: higher = more lactate per cell without drug. Rule for the call: 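a duplex is active when its lactate-per-cell ratio with versus without drug falls under 0.55, i.e. 2 SD below non-targeting; a gene is confirmed if 2 or more of 4 duplexes pass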.
Here is an unselected part of about 1,600 reagents. 623 of them (39%) count as active. 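Calls are for each duplex; lactate ratios contain extreme outliers.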 Entries without a mark were called inactive. Not all columns of the deposit are shown.

no.	gene	PubChem SID	lactate per cell, drug vs no drug	lactate per cell with vemurafenib	lactate per cell without drug
1	KRTAP10-10	SID134280418	0.5 (active)	1.54	2.12
2	KRTAP10-10	SID134280419	0.58	0.7	0.82
3	KRTAP10-10	SID134280420	0.64	0.76	0.8
4	KRTAP10-10	SID135615666	0.9	2.06	1.62
5	NEUROD2	SID134244670	0.92	2	1.42
6	NEUROD2	SID134244671	0.64	1.25	1.29
7	NEUROD2	SID134244672	0.37 (active)	1.27	2.27
8	NEUROD2	SID135612790	0.78	2.34	1.94
9	TRPT1	SID134265089	0.48 (active)	1.4	1.81
10	TRPT1	SID134265091	0.7	0.82	0.74
11	TRPT1	SID134265092	0.72	1.75	1.54
12	TRPT1	SID135614499	0.9	1.82	1.27
13	CREBRF	SID134269417	0.6	1.54	1.6
14	CREBRF	SID134269418	0.48 (active)	0.82	1.04
15	CREBRF	SID134269419	0.6	1.06	1.11
16	CREBRF	SID134269420	0.76	3.6	2.96
17	STRBP	SID134267653	0.5 (active)	1.5	2.1
18	STRBP	SID134267654	0.62	1.23	1.32
19	STRBP	SID134267655	0.93	1.3	0.94
20	STRBP	SID135614716	0.55	0.74	0.91

Continued; the last 4 above are carried over.
no.	gene	PubChem SID	lactate per cell, drug vs no drug	lactate per cell with vemurafenib	lactate per cell without drug
17	STRBP	SID134267653	0.5 (active)	1.5	2.1
18	STRBP	SID134267654	0.62	1.23	1.32
19	STRBP	SID134267655	0.93	1.3	0.94
20	STRBP	SID135614716	0.55	0.74	0.91
21	ARHGAP24	SID134265001	0.46 (active)	0.94	1.26
22	ARHGAP24	SID134265002	0.5 (active)	0.91	1.12
23	ARHGAP24	SID134265003	0.31 (active)	0.44	0.92
24	ARHGAP24	SID134265004	0.32 (active)	0.64	1.3
25	TIMP4	SID134252717	0.43 (active)	0.61	0.88
26	TIMP4	SID134252718	0.62	1.27	1.29
27	TIMP4	SID134252719	0.6	0.76	0.8
28	TIMP4	SID134252720	0.7	0.82	0.73
29	ARPC2	SID134255237	0.52 (active)	0.96	1.25
30	ARPC2	SID134255238	0.73	1.34	1.25
31	ARPC2	SID134255239	0.65	4.21	4.38
32	ARPC2	SID134255240	0.4 (active)	0.6	1.04
33	PDIK1L	SID56477031	0.62	1.94	2.06
34	PDIK1L	SID56477032	0.47 (active)	1.66	2.23
35	PDIK1L	SID56477033	0.49 (active)	0.69	0.88
36	PDIK1L	SID56477034	0.74	1.13	0.99
37	CPNE1	SID134253241	0.6	1.91	1.96
38	CPNE1	SID134253242	0.26 (active)	0.65	1.56
39	CPNE1	SID134253243	0.57	1.27	1.43
40	CPNE1	SID134253244	1	2.66	1.67
41	CCL18	SID134240801	0.5 (active)	0.76	0.92
42	CCL18	SID134240802	0.48 (active)	0.62	0.8
43	CCL18	SID134240803	0.56	1.29	1.52
44	CCL18	SID134240804	0.6	3.95	4.14
45	ALG2	SID134296741	0.66	1.16	1.15
46	ALG2	SID134296742	0.44 (active)	0.88	1.35
47	ALG2	SID134296743	0.48 (active)	0.71	0.95
48	ALG2	SID134296744	0.51 (active)	0.97	1.23
49	ADD1	SID134246613	0.56	0.75	0.8
50	ADD1	SID134246614	0.3 (active)	0.7	1.4
51	ADD1	SID134246615	0.62	1.42	1.32
52	ADD1	SID134246616	0.65	1.18	1.08
